The test system of this data set is lipase-containing detergent. Nature of the data set: Washing of test cloth with lipase-containing detergent plus precursor, headspace analysis of wet and dry laundry.

Consider `CCCCCCCC(=O)ON=C(C)C1CC2C=CC1C2` (centres unmarked) [Example 1(a), octanoic acid 1-bicyclo-[2.2.1]hept-5-en-2-yl-ethanone oxime ester], for which, where the note is “lipase-containing detergent”, the “Fragrance level compared to test cloth washed with detergent containing an equivalent amount of the fragrance” value is recorded as “higher”. Moreover, the “Headspace analysis of the wet and dry laundry: decomposition product (fragrance)” value (lipase-containing detergent with precursor added) is “presence of the decomposition product 1-bicyclo [2.2.1]hept-5-en-2-yl-ethanone oxime”.

Values taken from US6521797B1, “Oxime carboxylic acid derivative precursors” (Givaudan AG, priority 1998, dated 2003).
